Assay results reported in PubChem BioAssay AID504444 (National Center for Advancing Translational Sciences (NCATS), 2011).
Out of some 360,000 compounds screened, about 7,500 (2.1%) were called active. Inconclusive means that the source gave no clear call. Such entries were picked first, then a sample of the others. The call rests on the fitted dose curve; in most records, active means well fitted inhibition curve with a large enough effect; inconclusive means small, poorly fitted or top-dose-only effect, or effect the other way; inactive means flat fitted curve, though single readings scatter. Where the call is inconclusive, the potency comes from a doubtful curve fit.
Potency means the concentration at half of the fitted maximal effect.

Experiment: Nrf2 qHTS screen for inhibitors; further: nearly all actives have a fitted effect of over 60% in size
Conditions: A549 ARE-Fluc reporter, luciferase luminescence, 18-24 h; series mostly up to 46 µM
Outline: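 Nrf2 activity is the BugLite luminescence, read 15 min after reagent at room temperature, following CellTiter-Fluor cytotoxicity readout (30 min, 37C). Compound titrations were applied for 18-24 h to 5000 A549 ARE_Fluc cells/well in 5% FBS OPTI-MEM.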
In the case of `CC(=O)N1CCc2cc(S(=O)(=O)NCCC(=O)NCCc3ccc(C)cc3)ccc21`, the Potency is reported as inconclusive: 25.9 µM [falling, partial curve, poor fit]. In the case of `Cc1ccc2cc(/C=N/Nc3nc4ccccc4[nH]3)c(Cl)nc2c1`, the Potency is reported as inconclusive: 4.11 µM [falling, full curve, poor fit]. In the case of `CC(C)(C)OC(=O)N1CCCC(C(=O)Nc2cccc(C(=O)NCCCc3ccccc3)c2)C1` (stereo not drawn), the Potency is reported as inconclusive: 32.6 µM [falling, partial curve, poor fit]. With `CC(C)(C)CC(C)(C)NC(=S)Nc1ccc2nc(-c3ccccn3)c(-c3ccccn3)nc2c1` the Potency was inconclusive: 29.1 µM [falling, single point]. With `Cc1ccc(C2c3c(-c4ccccc4O)n[nH]c3C(=O)N2Cc2ccncc2)cc1` (stereo not drawn) the Potency was “inactive”. In the case of `CCCCCCCCSc1nnc(/N=C/N(C)C)s1`, the Potency is reported as inconclusive: 20.6 µM [activator, partial curve]. In the case of `COc1ccc(NC(=O)CC2C(=O)N(C)C(=S)N2CCc2ccccc2F)cc1` (stereo not drawn), the Potency is reported as inconclusive: 11.6 µM [falling, partial curve, poor fit]. In the case of `CCC1=NN2C(=N)/C(=C\c3cccn3-c3ccc(Br)cc3)C(=O)N=C2S1`, the Potency is reported as inconclusive: 1.3 µM [falling, partial curve, poor fit]. For `O=C(CCl)Nc1ccc(N=Nc2ccccc2)cc1`, the Potency was “inactive”. With `CCn1c(O)c2ccc(C(=O)N=NC(=O)c3ccccc3)cc2c1O` the Potency was inconclusive: 29.1 µM [activator, partial curve, poor fit]. For `CCc1nc2cc([N+](=O)[O-])c([N+](=O)[O-])cc2[nH]1`, the Potency was inconclusive: 32.6 µM [falling, partial curve, poor fit]. With `Cc1c([N+](=O)[O-])cc(N2C(=O)C=CC2=O)cc1[N+](=O)[O-]` the Potency was inconclusive: 29.1 µM [activator, partial curve, poor fit]. In the case of `COc1ccc(/C=C2\CCC(C3CCCC3)C2=O)cc1` (stereo not drawn), the Potency is reported as inconclusive: 20.6 µM [activator, single point]. With `NC(=S)N/N=C1\c2ccccc2-c2c(C(=O)O)cccc21` the Potency was “inactive”. In the case of `C/C(=N\Nc1ccccc1[N+](=O)[O-])c1ccccc1O`, the Potency is reported as inconclusive: 29.1 µM [activator, single point]. With `COc1ccccc1NC(=O)COC(=O)CC(C)(C)CC1=NS(=O)(=O)c2ccccc2N1` the Potency was inconclusive: 29.1 µM [falling, single point]. With `COc1cccc(-c2cc(C(=O)N3CCN(c4ncccn4)CC3)c3ccccc3n2)c1` the Potency was inconclusive: 29.1 µM [falling, single point]. With `COc1cccc(NC(=O)Nc2cnccn2)c1` the Potency was inconclusive: 3.26 µM [activator, partial curve, poor fit]. In the case of `O=C(O)c1cccnc1Sc1ncnc2sc3c(c12)CCC3`, the Potency is reported as inconclusive: 6.51 µM [activator, partial curve, poor fit]. In the case of `CCOC(=O)C1=C(c2ccccc2)N=C2SCC(=O)N2C1c1cccc(OC)c1` (stereo not drawn), the Potency is reported as inconclusive: 14.6 µM [activator, partial curve, poor fit]. In the case of `O=C(Nc1ccccc1)c1ccccc1NS(=O)(=O)c1ccc(Cl)s1`, the Potency is reported as active: 18.4 µM. With `CCOc1ccc(N=C/C=C/c2ccccc2)c(O)c1` the Potency was “inactive”. In the case of `CCOc1cc(/C=C/c2cc(C(F)(F)F)[nH]c(=O)n2)ccc1O`, the Potency is reported as active: 20.6 µM. In the case of `C[N+](C)(C)c1ccc(/C=N/Nc2nc(Cl)c(C#N)c(Cl)c2Cl)cc1`, the Potency is reported as “inactive”. In the case of `COC(=O)c1c(-c2cccs2)csc1NC(=O)COc1ccccc1`, the Potency is reported as “inactive”. For `COc1ccc(Cl)cc1S(=O)(=O)n1ccnc1`, the Potency was “inactive”. For `O=C(CCNC(=O)c1ccc(Cl)cc1)Nc1ccccc1N1CCCCC1`, the Potency was inconclusive: 6.51 µM [activator, partial curve, poor fit]. In the case of `CC(CNC(=O)c1ccc(Nc2nc3ccccc3n3nnnc23)cc1)c1ccccc1` (stereo not drawn), the Potency is reported as inconclusive: 0.326 µM [falling, full curve]. With `CC1CCCN(S(=O)(=O)c2ccc([N+](=O)[O-])cc2)C1` (stereo not drawn) the Potency was “inactive”. For `CC(C)C(=O)NC(c1cccs1)c1cc([N+](=O)[O-])c2cccnc2c1O` (stereo not drawn), the Potency was active: 20.6 µM. With `CC(=O)N1CCc2cc(S(=O)(=O)N3c4ccccc4CC3C)ccc21` (stereo not drawn) the Potency was active: 14.6 µM. In the case of `CCOc1cccc(C(=O)Nc2cccc(-c3nc4ncccc4o3)c2C)c1`, the Potency is reported as inconclusive: 18.4 µM [falling, single point]. With `Cc1cc(C(=O)Nc2cc(C(C)(C)C)on2)c(C)o1` the Potency was inconclusive: 23.1 µM [activator, single point]. In the case of `COc1ccccc1Nc1nc(NCC(C)C)nc(N)c1[N+](=O)[O-]`, the Potency is reported as inconclusive: 29.1 µM [falling, single point]. For `O=C(NCCN1CCOCC1)c1ccc2c(c1)N(Cc1ccccc1F)C(=O)CS2`, the Potency was inconclusive: 23.1 µM [falling, partial curve, poor fit]. In the case of `CCOC(=O)c1sc(-c2ccccc2)cc1N`, the Potency is reported as inconclusive: 29.1 µM [activator, single point]. With `CCOC(=O)c1c(-c2ccc(C)cc2C)csc1NC(=O)c1ccccc1Cl` the Potency was “inactive”. For `COc1cccc(C(=O)Nc2ccc(NC(=O)C3C4C=CC(C4)C3C(=O)O)cc2)c1` (stereo not drawn), the Potency was inconclusive: 9.2 µM [falling, partial curve, poor fit]. In the case of `Cc1sc2ncnc(N3CCC(C(=O)NNC(=O)c4ccc(F)cc4)CC3)c2c1C`, the Potency is reported as inconclusive: 14.6 µM [falling, partial curve, poor fit]. In the case of `COc1ccc(CCN(C)C(=O)c2cc(=O)c3ccccc3o2)cc1OC`, the Potency is reported as inconclusive: 29.1 µM [activator, partial curve, poor fit]. With `CCc1ccc(-c2cn3nc(C)c(C)nc3n2)cc1` the Potency was inconclusive: 18.4 µM [falling, partial curve, poor fit]. For `O=C(Oc1ccc(-c2nc(-c3ccccn3)no2)cc1)c1ccccc1`, the Potency was inconclusive: 0.92 µM [activator, partial curve]. In the case of `COc1cccc(/C=N/NC(=O)c2ccoc2C)c1`, the Potency is reported as inconclusive: 1.16 µM [activator, full curve].
